# Results deposited as PubChem BioAssay AID493246 (Drosophila RNAi Screening Center, 2011)
# Screen: 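Genes fly cells need to grow and stay alive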 (primary screen)
# Cell system: Drosophila Kc and S2R+ cells
# Reagents: long dsRNA against Drosophila genes
# Read-out: 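Cell number per well after knock-down, printed as raw plate values; calls were based on per-plate z-scores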
# Direction: Kc cell number and S2R+ cell number: higher = more cells remaining
# Rule for the call: 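Active when the per-plate z-score of cell number is 3 or more in the direction of fewer cells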
# The screen tested about 21,000 reagents; this is an unselected part of those that have a named target and a result. In the full data, 429 (2%) were called active. 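Values are raw and not normalised between plates; calls rest on per-plate z-scores that were not deposited.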 Unmarked entries are inactive. Reagent sequences are not shown. Not stated in the record: the amount of reagent, the time to read-out.
gene,amplicon,"Kc cell number, rep 1","Kc cell number, rep 2","S2R+ cell number, rep 1","S2R+ cell number, rep 2"
CG34129,DRSC15960,1.76e6,1.81e6,1.06e6,1.16e6
fig,DRSC16270,1.79e6,1.80e6,1.08e6,1.24e6
Gycalpha99B,DRSC16690,5.12e5,,7.97e5,
CG8243,DRSC07122,1.74e6,1.90e6,1.26e6,1.37e6
CG12279,DRSC14495,1.65e6,1.93e6,1.53e6,1.64e6
CG32199,DRSC09990,1.35e6,1.52e6,1.34e6,1.50e6
CG13082,DRSC02186,1.53e6,1.67e6,1.37e6,4.51e5
SIDL,DRSC16077,1.50e6,1.55e6,1.26e6,1.36e6
CG34452,DRSC09387,1.37e6,1.40e6,1.15e6,1.26e6
CG12929,DRSC06242,1.85e6,2.03e6,1.37e6,1.49e6
CG1979,DRSC12495,1.58e6,1.66e6,1.39e6,1.46e6

In a second layout: results already given
SIDL [DRSC16077]
- Kc cell number, rep 1: 1.50e6
- Kc cell number, rep 2: 1.55e6
- S2R+ cell number, rep 1: 1.26e6
- S2R+ cell number, rep 2: 1.36e6

CG34452 [DRSC09387]
- Kc cell number, rep 1: 1.37e6
- Kc cell number, rep 2: 1.40e6
- S2R+ cell number, rep 1: 1.15e6
- S2R+ cell number, rep 2: 1.26e6

CG12929 [DRSC06242]
- Kc cell number, rep 1: 1.85e6
- Kc cell number, rep 2: 2.03e6
- S2R+ cell number, rep 1: 1.37e6
- S2R+ cell number, rep 2: 1.49e6

CG1979 [DRSC12495]
- Kc cell number, rep 1: 1.58e6
- Kc cell number, rep 2: 1.66e6
- S2R+ cell number, rep 1: 1.39e6
- S2R+ cell number, rep 2: 1.46e6

More records follow.
gene,amplicon,"Kc cell number, rep 1","Kc cell number, rep 2","S2R+ cell number, rep 1","S2R+ cell number, rep 2"
CG4962,DRSC10464,1.61e6,1.78e6,1.47e6,1.54e6
5-HT2A,DRSC11990,1.61e6,1.69e6,1.33e6,1.45e6
mRpL4,DRSC03562,1.30e6,1.32e6,1.21e6,1.32e6
mah,DRSC14645,1.81e6,1.71e6,1.03e6,1.19e6
CG14190,DRSC19545,1.54e6,1.58e6,1.05e6,1.18e6
CG9171,DRSC03152,1.35e6,1.46e6,5.35e5,8.15e5
Grl58a,DRSC04145,1.79e6,1.86e6,1.28e6,2.79e5
fbp,DRSC02077,1.51e6,1.55e6,1.44e6,1.47e6
CG31204,DRSC15106,1.60e6,1.61e6,1.02e6,1.16e6
Swim,DRSC04334,1.29e6,1.37e6,1.09e6,1.13e6
Uvrag,DRSC02932,1.39e6,1.44e6,1.17e6,1.27e6
Lpin,DRSC07241,1.35e6,1.43e6,1.15e6,1.23e6
CG9727,DRSC12585,1.63e6,1.65e6,1.28e6,1.37e6
